These are yes or no findings as the source states them, for the method shown. In cells and extracts the contact can be indirect. Some entries that bind do so weakly or less than the wild type.

The chains behind the UniProt entries cited, without tags or fusion partners.
UniProt P35637: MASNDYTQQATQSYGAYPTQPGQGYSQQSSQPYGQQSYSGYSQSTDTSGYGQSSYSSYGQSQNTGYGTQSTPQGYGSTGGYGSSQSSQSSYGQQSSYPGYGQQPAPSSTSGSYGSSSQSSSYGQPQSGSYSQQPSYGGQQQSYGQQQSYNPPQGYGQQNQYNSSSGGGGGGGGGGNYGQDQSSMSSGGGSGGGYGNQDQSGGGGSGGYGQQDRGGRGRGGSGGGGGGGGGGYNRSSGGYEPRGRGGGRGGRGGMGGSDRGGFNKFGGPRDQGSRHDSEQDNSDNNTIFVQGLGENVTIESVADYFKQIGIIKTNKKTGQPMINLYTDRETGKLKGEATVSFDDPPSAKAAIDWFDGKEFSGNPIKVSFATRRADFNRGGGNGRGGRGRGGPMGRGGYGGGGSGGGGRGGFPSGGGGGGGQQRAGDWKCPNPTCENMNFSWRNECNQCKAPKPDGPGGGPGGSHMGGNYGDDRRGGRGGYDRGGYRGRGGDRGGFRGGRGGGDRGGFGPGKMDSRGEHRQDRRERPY

Test [1] has as its target heterogeneous nuclear ribonucleoprotein K (HNRNPK) (human (endogenous in hiPSC-derived motor neurons)) (UniProt P61978). As to the kind of experiment: co-IP; total cell lysates of wild-type iPSC-derived motor neurons, with or without RNase A treatment; anti-FUS or anti-HNRNPK antibody 30 min at 4°C, Protein-G Dynabeads 1.5 h at 4°C, three washes with Brain immunoprecipitation buffer; bound proteins detected by Western blotting. Background: A western blot detects proteins with antibodies after separation by electrophoresis.

The target of test [2] is Fused in sarcoma (FUS) (human (endogenous in hiPSC-derived motor neurons)) (UniProt P35637). The test is described as above.

As to “Fused in sarcoma (FUS) (from UniProt P35637 1-526)”, the binding entry in test [1] is on record as “binds weakly”. As for “heterogeneous nuclear ribonucleoprotein K (HNRNPK) (from UniProt P61978 1-463)”, the binding result in test [2] is given as “binds”.

(Values after paper PMC9698725.)
